In patent US10617772B2, “Hsp9O-targeted inflammation and infection imaging and therapy” (Memorial Sloan Kettering Cancer Center, priority 2014, dated 2020):

System: inflammatory pulmonary consolidation
Assay: I-124 PUH71 PET-CT, tracer mixed with a therapeutic dose of non-radioactive PUH71 (FIGS. 3-4)
Format: in vivo, human
Method: Positron emission tomography (PET) combined with X-ray computed tomography (CT) was performed using a state of the art integrated PET-CT scanner (Discovery DSTE™ General Electric). CT scans for attenuation correction and anatomic coregistration were performed prior to tracer-injection, using the following acquisition parameters: 140 kVp; 85 mA; pitch of 1.75:1; reconstructed slice thickness of 3.75 mm; 0.8 s per rotation. The CT protocol was designed for anatomic localization of tracer-signal and for attenuation correction, while minimizing radiation exposure. Each patient received ˜185 megabecquerel (MBq) [^124I]-PU-H71 by peripheral vein over two minutes. PET emission scans were acquired in two-dimensional mode starting at the mid-thighs moving toward the head, for 7.5 minutes per PET bed position. […]
PU-PET images were taken 1.5, 4, 24 and 48-72 hrs after co-administration on the tracer mixed with a therapeutic dose of non-radioactive PUH71 in a total volume of […], co-infused intravenously over one hour. Patient were treated with PU-H71 at escalating dose levels determined by a modified continuous reassessment model. […] Pre- and post-treatment biopsies were collected for correlative studies including LCMSMS quantification of PU-H71, with the latter obtained within 24 hours of their cycle 1, day 1 dose of PU-H71.

## CC(C)NCCCn1c(Sc2cc3c(cc2[124I])OCO3)nc2c(N)ncnc21 [I-124 PUH71]
FIGS. 1-4
  time after injection of the radiotracer at which an inflammation/infection can still be detected: at least 24 hours
FIGS. 3 and 4
  time after injection of the radiotracer at which an inflammation/infection can be detected (early detection): about 4 hours
